Changes are numbered by the printed parent chain. Results are given in words; binding and its absence hold for the method and conditions named. Some entries that bind do so weakly or less than the wild type. Each block holds one binder with its values, some of them ahead of it.
What was measured:
[1] = biological target: human CD3 on CD3-expressing cells (Jurkat, human T cells) (human) (UniProt P07766); test: FACS on Jurkat cells
[2] = biological target: human PSMA on PSMA-expressing cells (human) (UniProt Q04609); test: FACS on PSMA-expressing cells
[3] = biological target: human CD3 on CD3-expressing cells (Jurkat, human T cells) (human) (UniProt P07766); test: FACS / SPR, as summed up in Example 7
[4] = biological target: human PSMA expressed with an N-terminal hexahistidine tag (6h.hPSMA, R&D) (human) (UniProt Q04609); test: SPR, 37 C, antibody-capture format
[5] = biological target: human PSMA expressed with an N-terminal hexahistidine tag (6h.hPSMA, R&D) (human) (UniProt Q04609); test: SPR (Example 3)
[6] = biological target: human CD3 on CD3-expressing cells (Jurkat, human T cells) (human) (UniProt P07766); test: FACS

Amino acid sequences for entries named in this document (tags omitted). A change or cut given only in a name is not applied to a line headed by its entry.
UniProt P07766: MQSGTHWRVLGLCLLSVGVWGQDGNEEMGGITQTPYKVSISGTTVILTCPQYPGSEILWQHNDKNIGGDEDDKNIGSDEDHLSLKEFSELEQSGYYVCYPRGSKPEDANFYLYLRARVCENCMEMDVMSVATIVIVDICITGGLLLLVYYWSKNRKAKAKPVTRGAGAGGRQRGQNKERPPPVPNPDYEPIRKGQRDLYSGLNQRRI
UniProt Q04609: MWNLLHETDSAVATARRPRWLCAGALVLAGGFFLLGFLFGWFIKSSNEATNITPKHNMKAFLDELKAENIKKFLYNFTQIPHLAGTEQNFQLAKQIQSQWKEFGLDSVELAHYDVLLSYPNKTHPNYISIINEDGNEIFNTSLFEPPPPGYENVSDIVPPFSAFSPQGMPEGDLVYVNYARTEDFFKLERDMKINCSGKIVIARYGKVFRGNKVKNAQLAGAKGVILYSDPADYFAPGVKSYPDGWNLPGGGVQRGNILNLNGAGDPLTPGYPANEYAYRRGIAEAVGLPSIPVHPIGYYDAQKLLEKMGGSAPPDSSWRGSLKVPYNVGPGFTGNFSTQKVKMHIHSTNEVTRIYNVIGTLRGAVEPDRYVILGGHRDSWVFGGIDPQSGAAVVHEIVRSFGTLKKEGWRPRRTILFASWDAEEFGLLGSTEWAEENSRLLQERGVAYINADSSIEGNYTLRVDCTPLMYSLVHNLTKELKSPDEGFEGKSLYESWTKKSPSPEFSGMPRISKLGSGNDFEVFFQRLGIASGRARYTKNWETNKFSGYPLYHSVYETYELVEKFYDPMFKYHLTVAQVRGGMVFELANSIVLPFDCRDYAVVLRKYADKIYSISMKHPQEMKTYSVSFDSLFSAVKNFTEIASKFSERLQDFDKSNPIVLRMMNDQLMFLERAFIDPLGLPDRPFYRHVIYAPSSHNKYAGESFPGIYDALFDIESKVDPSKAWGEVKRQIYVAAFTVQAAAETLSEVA

B2: H1H11808P2 (antibody, human IgG1, V domains shown)
VH: QVQLVESGGGVVQPGRSLRLSCAASGFPFNSYGMHWVRQAPGKGLEWVAVISYDGSNRYYADSVKGRFTISRDNSKYTLDLHVSSLTTDDTAVYYCARDRRYGKWEQLYPDYLGQGTLVTVSS
VL: DIQMTQSPSSLSASVGDSVTITCRASQSINNYLNWYQQKPGKAPKLLIYTASSLLSGVPSRFSGSGSGTDFTLTISGLHPEDFATYFCQQSFSTPPITFGQGTRLDIK
- binding [4]: binds

B3: H1H11803P2 (antibody, human IgG1, V domains shown)
VH: QVQLVESGGGVVQPGRSLRLSCAASGFTFSSYGMHWVRQAPGKGLEWVAVIWYDGNNKYYADSVKGRFTISRDNSKKTLYLQMTSLRAEDTAVYYCARDQYYDILTADNTLDYWGQGTLVTVSS
VL: B2 VL
- binding [4]: binds

B4: H1H11805P2 (antibody, human IgG1, V domains shown)
VH: EVQLVESGGGLVQPGGSLRLSCVVSGFTFNNYWMSWVRQAPGKGLEWVANIKKDGSEKYYVDSVKGRFTISRDNAKNSLYLQMNSLRAEDTAVYYCARDIMATIIDWGQGTLVTVSS
VL: B2 VL
- binding [4]: binds

B6: H1H11792P2 (antibody, human IgG1, V domains shown)
VH: QVQLVESGGGVVQPGRSLRLSCAASGFTFSSYGMHWVRQPPGKGLEWVAIMSYDGSNKYYADSVKGRFTISRDNSKNTLYLQMNSLRVEDTAVYYCAKDQYYDFLTFDYTLDYWGQGTLVTVSS
VL: B2 VL
- binding [4]: binds

B7: H1H11835P2 (antibody, human IgG1, V domains shown)
VH: EVQLVESGGGLVQSGGSLRLSCEASGFTFSNYWMTWIRQGPGKGLEWVANIKPDGTENYYVDSVKGRFTISRDNARNSLYLQMTSLKAEDTAVYYCGRMIQFVINIWGQGTLVTVSS
VL: B2 VL
- binding [4]: binds

B8: H1H11810P2 (antibody, human IgG1, V domains shown)
VH: QVQLVESGGGVVQPGRSLRLSCAASGFTFSSYGMHWVRQAPGKGLEWVAVISYAGNNKYYADSVKGRFTVSRDNSKKTLYLQMNSLRSEDTAVYYCAKDSYYDFLTDPDVLDIWGQGTMVTVSS
VL: B2 VL
- binding [4]: binds
- binding [5]: binds

B9: H1H11797P2 (antibody, human IgG1, V domains shown)
VH: QVQLVESGGGVVQPGRSLRLSCAASGFSFSGYGMHWVRQAPGKGLEWVAVTWYDGSNKYYADSVKGRFTISRDNSKNTLYLQMNSLRAEDTAVYYCARDGNWGGPYWYFDLWGRGTLVTVSS
VL: B2 VL
- binding [4]: binds

B11: H1H11800P2 (antibody, human IgG1, V domains shown)
VH: QVQLVESGGGVVQPGRSLRLSCAASGFTFSSYGMHWVRQAPGKGLEWVAVISYAGNNKYYVDSVKGRFTISRDNSKNTLYLQMNSLRAEDTAVYYCAKDPYYDFLTGSDYFDYWGQGTLVTVSS
VL: B2 VL
- binding [4]: binds

Second part, the binder after the results:

- binding [1]: binds
- binding [2]: binds
- binding [3]: binds
B1: BSPSMA/CD3-004 (bispecific antibody, IgG4, V domains shown)
VH 1: B8 VH
VH 2: EVQLVESGGGLVQPGRSLRLSCAASGFTFDDYSMHWVRQAPGKGLEWVSGISWNSGSIGYADSVKGRFTISRDNAKNSLYLQMNSLRAEDTALYYCAKDGSGYGKFYYYGMDVWGQGTTVTVSS
VL: B2 VL

- binding [4]: binds
B5: H1H11837P2 (antibody, human IgG1, V domains shown)
VH: QVQLVESGGGVVQPGRSLRLSCAASGFTFSSYGMHWVRQAPGKGLEWVTFISYDGNNKYYSDSVKGRFAISRDNSKNTLYLQMNSLRAEDTSVYFCAKDQYYDFLTDFGVFDYWGQGTLVTVSS
VL: B2 VL

- binding [4]: binds
B10: H1H11836P2 (antibody, human IgG1, V domains shown)
VH: QVQLVESGGGVVQPGRSLRLSCAASGFTFRSYGMHWVRQAPGKGLEWVAFISYDESNKHQADSVKGRFTISRDNSKNTLYLQMNSLRAEDTAVYFCAKDQYYDFLTAYDTLDYWGQGTLVTVSS
VL: B2 VL

- binding [6]: binds
B12: CD3-VH-G (antibody, V domains shown)
VH: B1 VH 2 with I58K, D99Y, Y108H, M111L
VL: B2 VL

— US20190127480A1
